Source: patent US20090226427A1, “NOVEL PHARMACEUTICAL COMPOSITIONS FOR MODULATING ANGIOGENESIS” (priority 1999, published 2009)
At least one structure is not confirmed: it was looked up by name or label, or the drawing left a doubt.

System: phospho-Ser1177-eNOS
Test: phospho-Ser1177-eNOS immunoblot, statin-exposed HUVECs
Settings: for effect on statin-induced phosphorylation of eNOS: atorvastatin 1 μmol/L, LY294002 10 μmol/L, geldanamycin 1 μg/mL, mevalonate 1 mmol/L, BAPTA-AM 20 μmol/L, CSD peptide loading

Compound	effect on statin-induced phosphorylation of eNOS	phosphorylation of eNOS (simultaneous preincubation with geldanamycin and okadaic acid)
O=c1cc(N2CCOCC2)oc2c(-c3ccccc3)cccc12 [LY294002]	repressed	
COC1=C2C[C@@H](C)C[C@H](OC)[C@H](O)[C@@H](C)/C=C(\C)[C@H](OC(N)=O)[C@@H](OC)/C=C\C=C(/C)C(=O)NC(=CC1=O)C2=O [geldanamycin]	inhibited	completely repressed
